Structures can show the parent of a compound that is named as a salt. ± gives the standard deviation of the averaged measurements. Some well-known active drugs show little effect in this data set, so a weak value is uncertain.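 The breast cancer cell line MCF7 was treated with drug pairs over a dose grid. Each plate included DMSO-only wells as the untreated reference and a doxorubicin series as the total-kill control. These viability readings have no hit threshold applied.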
Tested on: MCF7
Test: cell viability relative to DMSO control (raw); higher = more viable cells
Conditions: exposure time 72 h
Experimental: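 MCF7 cells, 1000 cells/well in 384-well plates, treated with 6x6 dose matrices of drug pairs (1:3 serial dilutions, DMSO as lowest dose) for 72 h at 37 °C. Viability read by CellTiter-Glo luminescence, 3 biological replicates. Normalised viability sets 0% at the highest doxorubicin dose and 100% at the 0,0 µM control per combination.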

O=C1c2c(O)ccc(O)c2C(=O)c2c(NCCNCCO)ccc(NCCNCCO)c21 [Mitoxantrone] + Cn1cc(-c2ccc3nnc(C(F)(F)c4ccc5ncccc5c4)n3n2)cn1 [JNJ-38877605]
cell viability [%]
Conditions	drug 2 concentration 0 µM	drug 2 concentration 0.0617284 µM	drug 2 concentration 0.185185 µM	drug 2 concentration 0.555556 µM	drug 2 concentration 1.66667 µM	drug 2 concentration 5 µM
drug 1 concentration 0.0123457 µM	75.5 ± 7.1	78.8 ± 10	71.1 ± 9.5	74.6 ± 7.4	76 ± 4.8	75.53 ± 0.41
drug 1 concentration 0.037037 µM	74.1 ± 13	74.7 ± 11	73.5 ± 13	78.1 ± 11	74.1 ± 4.8	74.7 ± 6.5
drug 1 concentration 0.111111 µM	71.3 ± 8	68.3 ± 6.4	71.7 ± 4.4	69.9 ± 5.8	71.5 ± 3	66.4 ± 5
drug 1 concentration 0.333333 µM	57.1 ± 9.4	59.2 ± 7.6	58.6 ± 8.4	63.7 ± 3.8	68.1 ± 5.1	61.5 ± 1.6
drug 1 concentration 1 µM	36.4 ± 2.7	37 ± 7.4	38.8 ± 4.1	35.6 ± 5.9	35.9 ± 2.4	40.5 ± 4.2

CC(=O)O[C@H]1C(=O)[C@@]2(C)[C@H]([C@H](OC(=O)c3ccccc3)[C@]3(O)C[C@H](OC(=O)[C@H](O)[C@@H](NC(=O)c4ccccc4)c4ccccc4)C(C)=C1C3(C)C)[C@]1(OC(C)=O)CO[C@@H]1C[C@@H]2O [Paclitaxel] + CCCNC(=O)c1cn2ncnc(Nc3cc(C(=O)NC4CC4)ccc3C)c2c1C [BMS-582949 (hydrochloride)]
cell viability [%]
Conditions	drug 2 concentration 0 µM	drug 2 concentration 0.37037 µM	drug 2 concentration 1.11111 µM	drug 2 concentration 3.33333 µM	drug 2 concentration 10 µM	drug 2 concentration 30 µM
drug 1 concentration 0.00617284 µM	85.2 ± 1.2	81.5 ± 5.3	85.9 ± 9.9	76.3 ± 4.1	69.1 ± 3.9	62.9 ± 4.4
drug 1 concentration 0.0185185 µM	90.8 ± 8.2	83.3 ± 4.8	91.7 ± 1.5	90.7 ± 7.4	79.4 ± 6.8	72.2 ± 8
drug 1 concentration 0.0555556 µM	103 ± 3.2	95.2 ± 8.3	97.1 ± 1.8	101 ± 2.8	92.5 ± 3.8	87.5 ± 2.5
drug 1 concentration 0.166667 µM	87.8 ± 1.8	81.6 ± 2.9	94.5 ± 5.4	94.2 ± 3	83 ± 4.3	65 ± 7.3
drug 1 concentration 0.5 µM	107 ± 8.4	101 ± 9.1	101 ± 4.9	98.9 ± 6.9	91.2 ± 4	82.7 ± 7.4

CC(=O)O[C@H]1C(=O)[C@@]2(C)[C@H]([C@H](OC(=O)c3ccccc3)[C@]3(O)C[C@H](OC(=O)[C@H](O)[C@@H](NC(=O)c4ccccc4)c4ccccc4)C(C)=C1C3(C)C)[C@]1(OC(C)=O)CO[C@@H]1C[C@@H]2O [Paclitaxel] + COc1cc2nccc(Oc3ccc(NC(=O)NC4CC4)c(Cl)c3)c2cc1C(N)=O [lenvatinib Mesylate]
cell viability [%]
Conditions	drug 2 concentration 0 µM	drug 2 concentration 0.277778 µM	drug 2 concentration 0.833333 µM	drug 2 concentration 2.5 µM	drug 2 concentration 7.5 µM	drug 2 concentration 22.5 µM
drug 1 concentration 0.00617284 µM	93.7 ± 6.8	93.8 ± 12	94.7 ± 9.7	96.3 ± 11	91 ± 12	61.6 ± 4.4
drug 1 concentration 0.0185185 µM	106 ± 9	107 ± 9.9	104 ± 11	110 ± 17	106 ± 11	52.9 ± 17
drug 1 concentration 0.0555556 µM	97.8 ± 7.3	102 ± 6.3	102 ± 8.7	104 ± 17	107 ± 11	69.1 ± 1.9
drug 1 concentration 0.166667 µM	99.7 ± 5.2	101 ± 7.5	101 ± 7.4	100 ± 7	101 ± 5.9	52.7 ± 4.2
drug 1 concentration 0.5 µM	103 ± 10	99.1 ± 11	102 ± 8.3	107 ± 19	103 ± 8.9	57.8 ± 2.4

Cc1ccc(Nc2nccc(N(C)c3ccc4c(C)n(C)nc4c3)n2)cc1S(N)(=O)=O [Pazopanib] + C=C1/C(=C\C=C2/CCC[C@]3(C)[C@@H]([C@H](C)CCCC(C)C)CC[C@@H]23)C[C@@H](O)C[C@@H]1O [Alfacalcidol]
cell viability [%]
Conditions	drug 2 concentration 0 µM	drug 2 concentration 0.617284 µM	drug 2 concentration 1.85185 µM	drug 2 concentration 5.55556 µM	drug 2 concentration 16.6667 µM	drug 2 concentration 50 µM
drug 1 concentration 0.617284 µM	99.8 ± 9.7	88.8 ± 18	95.5 ± 19	93.5 ± 10	85.3 ± 15	9.41 ± 3
drug 1 concentration 1.85185 µM	94.3 ± 5.5	93.6 ± 22	95.6 ± 15	87.7 ± 20	74.6 ± 5.9	29.1 ± 10
drug 1 concentration 5.55556 µM	89.3 ± 5.3	77.9 ± 4	82.2 ± 21	76.9 ± 11	67.2 ± 12	7.47 ± 8.2
drug 1 concentration 16.6667 µM	60.4 ± 4.9	57.5 ± 7.1	55.1 ± 4.9	56.5 ± 7.6	46.3 ± 7.1	0.743 ± 0.04
drug 1 concentration 50 µM	41.8 ± 10	40.9 ± 13	39.4 ± 11	28.1 ± 12	9.2 ± 3.7	0.708 ± 0.087

Cc1ccc(Nc2nccc(N(C)c3ccc4c(C)n(C)nc4c3)n2)cc1S(N)(=O)=O [Pazopanib] + CC(C)C[C@@H](C(=O)N[C@H](C(=O)OC1CCCC1)c1ccccc1)[C@H](O)C(=O)NO [Tosedostat]
cell viability [%]
Conditions	drug 2 concentration 0 µM	drug 2 concentration 0.246914 µM	drug 2 concentration 0.740741 µM	drug 2 concentration 2.22222 µM	drug 2 concentration 6.66667 µM	drug 2 concentration 20 µM
drug 1 concentration 0.617284 µM	88.8 ± 4.7	69.7 ± 3.7	68.4 ± 3.8	62.01 ± 0.6	57.5 ± 2.2	42.2 ± 2.5
drug 1 concentration 1.85185 µM	85.6 ± 5.1	75.2 ± 4.8	72.1 ± 0.74	64.8 ± 2.2	58.4 ± 0.75	48.5 ± 3.8
drug 1 concentration 5.55556 µM	78.8 ± 2.1	75.8 ± 9.7	71 ± 0.83	63 ± 1.3	55.2 ± 1.2	41.1 ± 1.9
drug 1 concentration 16.6667 µM	51.4 ± 5.2	55.4 ± 3	52 ± 3.2	50.7 ± 5	43 ± 2.7	33.4 ± 1.7
drug 1 concentration 50 µM	62.8 ± 8.4	54.9 ± 5.3	48.8 ± 4	51.3 ± 8.1	34.9 ± 1.2	33.5 ± 0.92
